Measurements reported in PubChem BioAssay AID1671195 (Yale University, 2021).
Test: 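Knockdowns that increase or decrease uptake of fluorescent LDL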 (primary screen). Cell system: human Huh7 hepatoma cells. Reagent: siRNA pool against human genes, 18 nM. Timing: about 2 to 2.5 days of knockdown, then 8 h LDL uptake. Conditions: DiI-labelled LDL at 30 µg/ml for 8 h, in lipoprotein-deficient serum medium. Measurement: 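Per-cell DiI-LDL intensity by automated imaging; well means scaled to the plate median and given as a robust z-score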. Reading the numbers: robust z-score: higher = more LDL uptake after knockdown. Active means: 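Active when two or more replicates show a robust z-score above 2 or below -2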.
Here is an unselected part of about 22,000 reagents. Over the whole deposit, about 1,510 (6.9%) are marked active. 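Active includes knockdowns raising or lowering LDL uptake; positive z-scores mean more uptake, negative mean less.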

SAA4 → robust z-score, replicate 1: -0.921; robust z-score, replicate 2: -0.951; robust z-score, replicate 3: -0.573; Outcome: inactive
LOC200493 (retired record) → robust z-score, replicate 1: -0.454; robust z-score, replicate 2: -1.27; robust z-score, replicate 3: -1.01; Outcome: inactive
LOC341720 (retired record) → robust z-score, replicate 1: 0.526; robust z-score, replicate 2: 0.667; robust z-score, replicate 3: 0.268; Outcome: inactive
HACD2 → robust z-score, replicate 1: 2.08; robust z-score, replicate 2: 1.28; robust z-score, replicate 3: 2.68; Outcome: active

Continued; the last 2 above are carried over.
LOC341720 (retired record) → robust z-score, replicate 1: 0.526; robust z-score, replicate 2: 0.667; robust z-score, replicate 3: 0.268; Outcome: inactive
HACD2 → robust z-score, replicate 1: 2.08; robust z-score, replicate 2: 1.28; robust z-score, replicate 3: 2.68; Outcome: active
ANGPT1 → robust z-score, replicate 1: -1.32; robust z-score, replicate 2: -1.31; robust z-score, replicate 3: -0.0934; Outcome: inactive
NOP56P2 → robust z-score, replicate 1: 0.113; robust z-score, replicate 2: -2.18; robust z-score, replicate 3: 0.444; Outcome: inactive
FIRRE → robust z-score, replicate 1: 0.679; robust z-score, replicate 2: 0.965; robust z-score, replicate 3: 0.961; Outcome: inactive
LOC442671 (retired record) → robust z-score, replicate 1: -0.129; robust z-score, replicate 2: 0.561; robust z-score, replicate 3: 0.57; Outcome: inactive
YRDC → robust z-score, replicate 1: 1.43; robust z-score, replicate 2: 2.74; robust z-score, replicate 3: 2.55; Outcome: active
RGS8 → robust z-score, replicate 1: -0.356; robust z-score, replicate 2: -0.19; robust z-score, replicate 3: -0.0957; Outcome: inactive
LOC441349 (retired record) → robust z-score, replicate 1: 0.646; robust z-score, replicate 2: 0.302; robust z-score, replicate 3: 0.478; Outcome: inactive
SIMC1P1 → robust z-score, replicate 1: 2.48; robust z-score, replicate 2: 3.09; robust z-score, replicate 3: 2.87; Outcome: active
